# The supplement of paper PMC10849652
# By UniProt entry, the sequences of proteins in these tests, tags left out. Where a name states a change or a piece, a line headed by the entry shows the natural chain unless it says otherwise.
# UniProt P16989, whole entry, looked up: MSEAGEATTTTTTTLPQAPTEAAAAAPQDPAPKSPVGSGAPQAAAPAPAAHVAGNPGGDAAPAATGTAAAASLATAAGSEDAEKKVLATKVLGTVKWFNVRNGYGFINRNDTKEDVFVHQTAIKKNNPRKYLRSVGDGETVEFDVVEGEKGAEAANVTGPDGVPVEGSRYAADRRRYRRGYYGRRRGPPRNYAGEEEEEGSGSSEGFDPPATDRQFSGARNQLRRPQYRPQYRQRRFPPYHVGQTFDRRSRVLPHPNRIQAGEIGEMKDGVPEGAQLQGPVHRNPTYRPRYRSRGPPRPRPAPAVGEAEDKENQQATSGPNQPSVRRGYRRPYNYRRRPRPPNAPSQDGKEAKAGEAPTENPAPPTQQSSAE
# UniProt Q969M3: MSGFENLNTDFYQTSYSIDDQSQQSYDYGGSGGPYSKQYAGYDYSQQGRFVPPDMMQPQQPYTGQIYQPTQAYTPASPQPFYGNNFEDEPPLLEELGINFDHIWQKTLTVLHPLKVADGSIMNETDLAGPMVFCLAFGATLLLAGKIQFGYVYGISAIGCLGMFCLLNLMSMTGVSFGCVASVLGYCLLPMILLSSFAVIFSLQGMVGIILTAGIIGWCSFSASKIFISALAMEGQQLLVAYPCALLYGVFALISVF
# UniProt P62258: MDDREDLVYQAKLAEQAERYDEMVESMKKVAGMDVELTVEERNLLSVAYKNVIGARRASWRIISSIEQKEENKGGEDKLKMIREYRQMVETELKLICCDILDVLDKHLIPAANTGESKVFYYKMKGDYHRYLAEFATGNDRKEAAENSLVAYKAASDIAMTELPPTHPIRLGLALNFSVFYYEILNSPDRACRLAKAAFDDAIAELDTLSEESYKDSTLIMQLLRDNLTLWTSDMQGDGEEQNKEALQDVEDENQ
# UniProt Q9NRH1: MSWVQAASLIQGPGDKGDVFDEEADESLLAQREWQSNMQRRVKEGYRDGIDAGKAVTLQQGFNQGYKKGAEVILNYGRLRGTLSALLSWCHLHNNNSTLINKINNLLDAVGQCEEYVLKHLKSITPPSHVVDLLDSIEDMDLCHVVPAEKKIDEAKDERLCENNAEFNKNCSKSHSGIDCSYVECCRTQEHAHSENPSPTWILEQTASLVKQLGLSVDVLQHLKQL
# UniProt Q9GZM5: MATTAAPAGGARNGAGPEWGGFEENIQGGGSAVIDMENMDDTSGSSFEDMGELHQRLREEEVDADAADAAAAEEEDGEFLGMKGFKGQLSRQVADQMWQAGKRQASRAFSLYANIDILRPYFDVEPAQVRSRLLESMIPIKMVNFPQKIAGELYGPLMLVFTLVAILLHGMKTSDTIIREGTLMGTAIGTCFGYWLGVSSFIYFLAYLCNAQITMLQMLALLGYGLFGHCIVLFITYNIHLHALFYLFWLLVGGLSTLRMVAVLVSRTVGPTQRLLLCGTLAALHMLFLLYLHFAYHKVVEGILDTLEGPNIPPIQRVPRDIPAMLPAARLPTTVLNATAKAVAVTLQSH
# UniProt P31946: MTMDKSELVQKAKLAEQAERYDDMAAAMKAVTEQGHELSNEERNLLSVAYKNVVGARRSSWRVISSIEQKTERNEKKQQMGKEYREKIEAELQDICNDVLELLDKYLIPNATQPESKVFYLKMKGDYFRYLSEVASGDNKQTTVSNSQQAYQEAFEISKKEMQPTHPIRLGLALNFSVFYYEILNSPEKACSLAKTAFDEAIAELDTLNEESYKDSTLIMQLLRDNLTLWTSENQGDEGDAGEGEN
# UniProt P13010: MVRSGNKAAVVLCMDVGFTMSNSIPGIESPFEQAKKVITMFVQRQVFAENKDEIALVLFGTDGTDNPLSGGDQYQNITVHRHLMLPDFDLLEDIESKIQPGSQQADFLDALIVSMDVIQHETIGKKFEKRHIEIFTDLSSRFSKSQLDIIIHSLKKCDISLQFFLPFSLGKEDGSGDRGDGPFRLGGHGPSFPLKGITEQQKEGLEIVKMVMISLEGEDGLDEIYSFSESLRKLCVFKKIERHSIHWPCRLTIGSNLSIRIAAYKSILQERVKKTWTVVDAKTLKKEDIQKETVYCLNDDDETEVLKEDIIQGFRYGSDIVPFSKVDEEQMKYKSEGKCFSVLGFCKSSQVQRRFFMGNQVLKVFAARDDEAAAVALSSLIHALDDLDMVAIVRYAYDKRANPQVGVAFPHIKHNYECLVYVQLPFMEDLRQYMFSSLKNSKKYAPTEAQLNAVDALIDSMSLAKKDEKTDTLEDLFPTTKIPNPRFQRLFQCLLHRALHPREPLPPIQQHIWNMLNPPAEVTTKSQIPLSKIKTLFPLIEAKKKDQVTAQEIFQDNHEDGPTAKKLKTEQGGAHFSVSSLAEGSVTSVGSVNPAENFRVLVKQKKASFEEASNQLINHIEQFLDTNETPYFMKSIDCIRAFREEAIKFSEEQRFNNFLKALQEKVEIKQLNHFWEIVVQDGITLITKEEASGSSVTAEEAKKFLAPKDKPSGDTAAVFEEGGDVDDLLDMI
# UniProt Q96TA2: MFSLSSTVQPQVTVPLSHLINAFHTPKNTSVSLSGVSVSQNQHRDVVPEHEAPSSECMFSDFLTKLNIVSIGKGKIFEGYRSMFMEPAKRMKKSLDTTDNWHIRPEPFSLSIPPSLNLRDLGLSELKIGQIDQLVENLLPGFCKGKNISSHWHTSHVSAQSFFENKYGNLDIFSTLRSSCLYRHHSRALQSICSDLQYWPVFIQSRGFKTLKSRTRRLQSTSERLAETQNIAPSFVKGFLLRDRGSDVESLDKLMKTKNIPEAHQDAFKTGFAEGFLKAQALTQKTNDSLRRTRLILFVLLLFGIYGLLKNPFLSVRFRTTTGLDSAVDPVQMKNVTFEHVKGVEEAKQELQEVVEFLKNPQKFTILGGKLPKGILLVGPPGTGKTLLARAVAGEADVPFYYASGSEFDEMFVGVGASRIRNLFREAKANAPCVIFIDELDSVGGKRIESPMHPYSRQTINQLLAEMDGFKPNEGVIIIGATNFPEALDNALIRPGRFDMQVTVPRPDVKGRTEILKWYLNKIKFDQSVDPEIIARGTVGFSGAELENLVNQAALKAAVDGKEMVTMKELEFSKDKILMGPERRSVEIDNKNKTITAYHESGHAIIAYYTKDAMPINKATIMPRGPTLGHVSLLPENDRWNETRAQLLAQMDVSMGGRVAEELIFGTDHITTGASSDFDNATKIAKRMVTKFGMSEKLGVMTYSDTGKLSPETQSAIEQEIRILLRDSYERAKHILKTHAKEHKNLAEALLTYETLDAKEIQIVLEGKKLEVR
# UniProt Q5SVZ6: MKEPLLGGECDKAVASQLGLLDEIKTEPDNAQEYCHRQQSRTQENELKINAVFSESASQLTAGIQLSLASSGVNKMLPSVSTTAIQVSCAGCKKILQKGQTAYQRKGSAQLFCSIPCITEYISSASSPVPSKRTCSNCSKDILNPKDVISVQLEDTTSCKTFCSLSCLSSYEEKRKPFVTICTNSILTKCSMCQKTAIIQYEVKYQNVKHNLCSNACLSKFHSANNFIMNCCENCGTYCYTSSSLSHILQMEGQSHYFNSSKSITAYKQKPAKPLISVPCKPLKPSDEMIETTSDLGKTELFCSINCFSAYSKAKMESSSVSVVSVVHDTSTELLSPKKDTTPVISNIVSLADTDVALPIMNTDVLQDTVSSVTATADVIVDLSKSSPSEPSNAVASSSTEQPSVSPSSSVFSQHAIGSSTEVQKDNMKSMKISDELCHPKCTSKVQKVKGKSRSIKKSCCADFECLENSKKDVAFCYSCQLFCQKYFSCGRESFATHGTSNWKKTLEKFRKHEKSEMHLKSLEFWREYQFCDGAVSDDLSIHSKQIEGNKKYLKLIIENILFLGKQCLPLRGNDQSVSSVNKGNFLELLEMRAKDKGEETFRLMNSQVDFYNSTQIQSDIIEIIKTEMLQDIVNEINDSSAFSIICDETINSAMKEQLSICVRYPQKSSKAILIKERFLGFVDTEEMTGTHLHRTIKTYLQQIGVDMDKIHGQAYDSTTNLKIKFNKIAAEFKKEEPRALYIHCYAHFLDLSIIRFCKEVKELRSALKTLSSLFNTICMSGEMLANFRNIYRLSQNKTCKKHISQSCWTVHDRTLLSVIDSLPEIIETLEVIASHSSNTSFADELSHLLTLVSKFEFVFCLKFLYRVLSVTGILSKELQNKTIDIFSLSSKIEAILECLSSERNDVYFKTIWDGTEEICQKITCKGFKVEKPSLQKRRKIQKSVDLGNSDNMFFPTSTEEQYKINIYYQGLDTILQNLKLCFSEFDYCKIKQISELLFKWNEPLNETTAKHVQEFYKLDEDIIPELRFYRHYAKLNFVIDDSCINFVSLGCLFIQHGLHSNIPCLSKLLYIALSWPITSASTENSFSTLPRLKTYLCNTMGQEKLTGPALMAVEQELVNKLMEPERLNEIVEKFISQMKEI
# UniProt Q86WB0: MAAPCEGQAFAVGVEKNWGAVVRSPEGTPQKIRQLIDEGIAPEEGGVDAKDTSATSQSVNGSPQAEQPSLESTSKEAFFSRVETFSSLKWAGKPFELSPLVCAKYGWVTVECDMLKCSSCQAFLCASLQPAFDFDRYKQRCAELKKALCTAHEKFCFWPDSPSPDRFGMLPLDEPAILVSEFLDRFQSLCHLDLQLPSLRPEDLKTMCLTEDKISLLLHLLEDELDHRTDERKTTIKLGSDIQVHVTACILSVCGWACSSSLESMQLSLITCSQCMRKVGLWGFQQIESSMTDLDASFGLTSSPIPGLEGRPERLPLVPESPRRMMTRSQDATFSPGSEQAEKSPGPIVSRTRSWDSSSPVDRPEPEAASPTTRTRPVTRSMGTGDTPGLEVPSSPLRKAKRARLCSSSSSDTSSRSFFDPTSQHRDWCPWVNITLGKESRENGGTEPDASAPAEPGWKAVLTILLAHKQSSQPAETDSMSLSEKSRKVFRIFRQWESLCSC
# UniProt Q9NUD5: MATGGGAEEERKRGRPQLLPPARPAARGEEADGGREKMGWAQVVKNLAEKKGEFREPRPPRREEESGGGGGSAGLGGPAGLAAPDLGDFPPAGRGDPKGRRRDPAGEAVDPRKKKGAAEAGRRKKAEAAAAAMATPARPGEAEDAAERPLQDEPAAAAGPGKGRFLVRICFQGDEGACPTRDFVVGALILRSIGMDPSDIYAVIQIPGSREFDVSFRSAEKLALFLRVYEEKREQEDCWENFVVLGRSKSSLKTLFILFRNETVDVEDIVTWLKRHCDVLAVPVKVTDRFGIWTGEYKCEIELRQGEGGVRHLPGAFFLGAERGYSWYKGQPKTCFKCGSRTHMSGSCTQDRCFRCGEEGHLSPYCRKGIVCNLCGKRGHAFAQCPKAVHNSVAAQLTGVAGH
# UniProt Q9Y5A9: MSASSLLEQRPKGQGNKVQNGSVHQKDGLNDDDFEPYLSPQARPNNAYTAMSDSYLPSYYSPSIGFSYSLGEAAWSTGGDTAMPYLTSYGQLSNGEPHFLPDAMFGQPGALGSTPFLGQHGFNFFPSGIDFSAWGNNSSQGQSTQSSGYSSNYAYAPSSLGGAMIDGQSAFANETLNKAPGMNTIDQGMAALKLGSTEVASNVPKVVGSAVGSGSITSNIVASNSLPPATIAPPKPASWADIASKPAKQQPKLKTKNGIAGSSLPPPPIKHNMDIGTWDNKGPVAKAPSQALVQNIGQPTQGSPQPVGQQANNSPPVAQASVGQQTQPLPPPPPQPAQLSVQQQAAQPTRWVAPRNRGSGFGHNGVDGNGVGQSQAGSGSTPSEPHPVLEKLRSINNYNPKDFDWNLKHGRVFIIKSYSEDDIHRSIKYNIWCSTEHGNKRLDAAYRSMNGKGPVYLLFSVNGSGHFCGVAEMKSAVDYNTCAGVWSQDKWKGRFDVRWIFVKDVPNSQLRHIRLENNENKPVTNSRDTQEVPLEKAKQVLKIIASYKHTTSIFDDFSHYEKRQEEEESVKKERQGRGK
# UniProt P12956: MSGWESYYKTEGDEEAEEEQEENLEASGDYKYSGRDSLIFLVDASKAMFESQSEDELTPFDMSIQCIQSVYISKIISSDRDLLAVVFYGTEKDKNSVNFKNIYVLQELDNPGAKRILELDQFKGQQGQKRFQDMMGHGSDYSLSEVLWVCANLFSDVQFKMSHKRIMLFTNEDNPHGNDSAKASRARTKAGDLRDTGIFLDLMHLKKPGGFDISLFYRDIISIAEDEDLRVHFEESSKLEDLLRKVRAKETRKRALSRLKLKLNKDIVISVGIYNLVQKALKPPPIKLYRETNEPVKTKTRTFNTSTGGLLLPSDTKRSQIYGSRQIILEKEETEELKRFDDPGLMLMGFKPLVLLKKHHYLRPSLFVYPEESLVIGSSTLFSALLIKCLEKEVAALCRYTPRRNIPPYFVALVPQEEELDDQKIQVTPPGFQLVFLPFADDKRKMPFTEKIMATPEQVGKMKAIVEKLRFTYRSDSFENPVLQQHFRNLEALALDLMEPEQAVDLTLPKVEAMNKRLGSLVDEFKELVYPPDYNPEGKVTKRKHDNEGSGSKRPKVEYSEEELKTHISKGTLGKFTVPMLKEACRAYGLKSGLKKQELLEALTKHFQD
# This is one part of the list.
# How the values were obtained:
# Test in all cases: log2 fold change, soluble protein after heating vs DMSO (PISA); higher = thermal stabilisation; K562 cells, 10 uM, 30 min; active = over 0.2 and 3.5 SD of the protein, either way, in both replicates (recomputed)
# bafetinib = compound: Cc1ccc(NC(=O)c2ccc(CN3CC[C@H](N(C)C)C3)c(C(F)(F)F)c2)cc1Nc1nccc(-c2cncnc2)n1 [bafetinib]
# How it was run: (§1)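 Aliquots of K562 cells (2×10^6 cells/mL) treated with 10 μM compound for 30 min were heated for 3 min over 48°C-58°C. After pooling and extraction in PBS with 0.5% NP-40 at 4°C, soluble protein from a 21,000xg, 90 min spin was quantified by TMTpro 16plex LC-MS/MS with channel sums equalised. Thermal stability is expressed against control samples, from duplicates, as a log2 fold change.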
# [1] = compound: Cc1cccc(CC(=O)N2CCc3c2ccc(-c2cn(C)c4ncnc(N)c24)c3F)n1
# How it was run: as §1
# nilotinib = compound: Cc1cn(-c2cc(NC(=O)c3ccc(C)c(Nc4nccc(-c5cccnc5)n4)c3)cc(C(F)(F)F)c2)cn1 [nilotinib]
# How it was run: as §1
# [2] = compound: Cc1nc(Nc2n[nH]c3c2CN(C(=O)N[C@H](CN(C)C)c2ccccc2)C3(C)C)c2sccc2n1
# How it was run: as §1
# dasatinib = compound: Cc1nc(Nc2ncc(C(=O)Nc3c(C)cccc3Cl)s2)cc(N2CCN(CCO)CC2)n1 [dasatinib]
# How it was run: as §1
# [3] = compound: Cc1ncc(-c2ccnc(Nc3ccc(S(C)(=O)=O)cc3)n2)n1C(C)C
# How it was run: as §1
# [4] = compound: Cn1cc(-c2ccc3c(c2)CCN3C(=O)Cc2cccc(C(F)(F)F)c2)c2c(N)ncnc21
# How it was run: as §1
# [5] = compound: Cn1cc(-c2ccc3nnc(C(F)(F)c4ccc5ncccc5c4)n3n2)cn1
# How it was run: as §1
# tipifarnib = compound: Cn1cncc1[C@@](N)(c1ccc(Cl)cc1)c1ccc2c(c1)c(-c1cccc(Cl)c1)cc(=O)n2C [tipifarnib]
# How it was run: as §1
# mubritinib = compound: FC(F)(F)c1ccc(/C=C/c2nc(COc3ccc(CCCCn4ccnn4)cc3)co2)cc1 [mubritinib]
# How it was run: as §1
Target,log2 fold change (bafetinib),log2 fold change [1],log2 fold change (nilotinib),log2 fold change [2],log2 fold change (dasatinib),log2 fold change [3],log2 fold change [4],log2 fold change [5],log2 fold change (tipifarnib),log2 fold change (mubritinib)
XPNPEP3 (UniProt Q9NQH7),inactive: -0.06,inactive: 0.008,inactive: -0.034,inactive: 0.027,inactive: 0.021,inactive: -0.041,inactive: 0.092,inactive: -0.031,inactive: -0.065,inactive: 0.02
YKT6 (UniProt O15498),inactive: -0.025,inactive: -0.011,inactive: 0.026,inactive: -0.017,inactive: 0.015,inactive: 0.006,inactive: -0.008,inactive: 0.034,inactive: -0.016,inactive: 0.024
YBX3 (UniProt P16989),inactive: 0.091,inactive: -0.048,inactive: 0.047,inactive: 0.156,inactive: 0.12,inactive: 0.032,inactive: -0.236,inactive: -0.115,inactive: 0.115,inactive: -0.065
YBX1 (UniProt P67809),inactive: 0.146,inactive: -0.024,inactive: 0.033,inactive: 0.149,inactive: 0.167,inactive: 0.013,inactive: -0.199,inactive: -0.136,inactive: 0.242,inactive: -0.031
ZFAND3 (UniProt Q9H8U3),inactive: -0.088,inactive: 0.132,inactive: -0.006,inactive: 0.036,inactive: 0.034,inactive: -0.031,inactive: 0.01,inactive: 0.005,inactive: 0.05,inactive: -0.014
ZDHHC18 (UniProt Q9NUE0),inactive: 0.159,inactive: -0.317,inactive: 0.129,inactive: -0.057,inactive: -0.111,inactive: -0.072,inactive: -0.009,inactive: -0.094,inactive: -0.112,inactive: -0.013
YIPF5 isoform 3 (UniProt Q969M3),inactive: -0.028,inactive: 0.06,inactive: 0.021,inactive: 0.016,inactive: 0.055,inactive: -0.03,inactive: -0.014,inactive: 0.12,inactive: -0.059,inactive: 0.012
ZFAND6 (UniProt Q6FIF0),inactive: -0.013,inactive: -0.014,inactive: 0.014,inactive: 0.028,inactive: 0.03,inactive: -0.031,inactive: 0.067,inactive: -0.009,inactive: -0.09,inactive: 0.017
YWHAE (UniProt P62258),inactive: -0.041,inactive: -0.053,inactive: 0.019,inactive: -0.013,inactive: 0.024,inactive: -0.003,inactive: 0,inactive: 0.031,inactive: 0.024,inactive: 0.038
XPR1 (UniProt Q9UBH6),inactive: 0.01,inactive: -0.061,inactive: 0.015,inactive: -0.063,inactive: -0.008,inactive: 0.009,inactive: 0.035,inactive: -0.015,inactive: -0.004,inactive: -0.015
ZMYM3 (UniProt Q14202),inactive: -0.061,inactive: -0.121,inactive: 0.041,inactive: -0.01,inactive: 0.047,inactive: -0.009,inactive: 0.053,active: -0.246,inactive: 0.027,inactive: -0.072
XRN2 (UniProt Q9H0D6),inactive: -0.007,inactive: -0.069,inactive: -0.001,inactive: 0.002,inactive: 0.01,inactive: -0.019,inactive: -0.029,inactive: 0.005,inactive: 0.028,inactive: -0.015
ZDHHC20 (UniProt Q5W0Z9),inactive: 0.104,inactive: 0.021,inactive: 0.016,inactive: -0.02,inactive: -0.163,inactive: 0.022,inactive: -0.036,inactive: 0.048,inactive: -0.014,inactive: 0.03
YAE1 (UniProt Q9NRH1),inactive: 0.013,inactive: 0.008,inactive: -0.023,inactive: 0.104,inactive: 0.152,inactive: 0.042,inactive: -0.095,inactive: 0.043,inactive: -0.008,inactive: -0.062
YJU2 (UniProt Q9BW85),inactive: -0.077,inactive: -0.037,inactive: 0.024,inactive: -0.012,inactive: -0.006,inactive: 0.061,inactive: -0.012,inactive: 0.04,inactive: -0.002,inactive: -0.027
ZNF207 isoform 4 (UniProt O43670),inactive: 0.014,inactive: -0.019,inactive: 0.012,inactive: -0.007,inactive: 0.005,inactive: 0.031,inactive: -0.003,inactive: -0.079,inactive: -0.028,inactive: -0.015
ZNF24 (UniProt P17028),inactive: 0.168,inactive: -0.005,inactive: 0.066,inactive: 0.014,inactive: 0.083,inactive: -0.067,inactive: -0.035,inactive: -0.149,inactive: 0.177,inactive: -0.088
YIPF3 (UniProt Q9GZM5),inactive: -0.05,inactive: 0.039,inactive: 0.005,inactive: -0.036,inactive: 0.064,inactive: 0.03,inactive: 0.086,inactive: -0.041,inactive: 0.093,inactive: -0.013
YWHAB (UniProt P31946),inactive: -0.008,inactive: -0.058,inactive: 0.039,inactive: -0.002,inactive: 0.006,inactive: 0,inactive: 0.005,inactive: -0.037,inactive: 0.059,inactive: 0.045
XPO4 (UniProt Q9C0E2),inactive: -0.077,inactive: 0.015,inactive: -0.01,inactive: 0.005,inactive: -0.016,inactive: 0.013,inactive: -0.006,inactive: -0.001,inactive: 0.003,inactive: 0.081
ZC3H15 (UniProt Q8WU90),inactive: 0.043,inactive: -0.04,inactive: 0.03,inactive: 0.055,inactive: 0.054,inactive: 0.037,inactive: -0.045,inactive: -0.064,inactive: 0.002,inactive: -0.011
XPO7 (UniProt E7ESC6),inactive: -0.104,inactive: 0.032,inactive: -0.027,inactive: -0.022,inactive: -0.036,inactive: -0.004,inactive: 0.038,inactive: 0.002,inactive: -0.03,inactive: 0.042
XRCC5 (UniProt P13010),inactive: 0.083,inactive: 0.07,inactive: -0.12,inactive: -0.405,inactive: -0.118,inactive: -0.243,inactive: 0.105,inactive: 0.123,inactive: -0.082,inactive: -0.014
YME1L1 (UniProt Q96TA2),inactive: -0.098,inactive: -0.001,inactive: -0.057,inactive: -0.005,inactive: 0.019,inactive: 0.004,inactive: -0.042,inactive: 0,inactive: 0.044,inactive: -0.011
ZMYM1 (UniProt Q5SVZ6),inactive: -0.028,inactive: -0.036,inactive: -0.009,inactive: -0.063,inactive: -0.045,inactive: -0.033,inactive: 0.07,inactive: 0.05,inactive: 0.01,inactive: -0.081
YWHAG (UniProt P61981),inactive: -0.053,inactive: -0.008,inactive: 0.044,inactive: -0.012,inactive: 0.022,inactive: -0.001,inactive: -0.032,inactive: 0.03,inactive: 0.035,inactive: 0.038
ZC3HC1 (UniProt Q86WB0),inactive: 0.018,inactive: 0.029,inactive: -0.052,inactive: -0.103,inactive: -0.214,inactive: -0.01,inactive: 0.014,inactive: 0.038,inactive: -0.183,inactive: -0.049
ZCCHC3 (UniProt Q9NUD5),inactive: 0.119,inactive: 0,inactive: 0.038,inactive: 0.027,inactive: 0.12,inactive: -0.044,inactive: -0.189,inactive: -0.09,inactive: 0.132,inactive: -0.027
YTHDF2 (UniProt Q9Y5A9),inactive: -0.035,inactive: -0.034,inactive: -0.022,inactive: -0.038,inactive: -0.016,inactive: -0.019,inactive: -0.003,inactive: -0.085,inactive: 0.048,inactive: -0.044
XRCC6 (UniProt P12956),inactive: -0.003,inactive: 0.032,inactive: -0.067,inactive: -0.248,inactive: -0.147,inactive: -0.07,inactive: -0.01,inactive: 0.018,inactive: -0.104,inactive: 0.043

# Given tab-delimited: entries from further up.
Target	log2 fold change (bafetinib)	log2 fold change [1]	log2 fold change (nilotinib)	log2 fold change [2]	log2 fold change (dasatinib)	log2 fold change [3]	log2 fold change [4]	log2 fold change [5]	log2 fold change (tipifarnib)	log2 fold change (mubritinib)
ZDHHC20 (UniProt Q5W0Z9)	inactive: 0.104	inactive: 0.021	inactive: 0.016	inactive: -0.02	inactive: -0.163	inactive: 0.022	inactive: -0.036	inactive: 0.048	inactive: -0.014	inactive: 0.03
XPO4 (UniProt Q9C0E2)	inactive: -0.077	inactive: 0.015	inactive: -0.01	inactive: 0.005	inactive: -0.016	inactive: 0.013	inactive: -0.006	inactive: -0.001	inactive: 0.003	inactive: 0.081
